# Some of the results follow. These are further read-outs of the screen, such as a control signal, another cell line or another target. No call is given for them. Most of these compounds were active or inconclusive in the main read-out, so they are no random draw. Words in brackets tell the shape of the fitted curve; partial curves, single points and poor fits give uncertain potencies.
# Test: qHTS Assay for Lipid Storage Modulators in Drosophila S3 Cells;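 as to cell number change: cells counted by Cell Tracker Red CMTPX staining in the red channel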
# Conditions: BODIPY lipid droplet fluorescence, 18-24 h; for cell number change: measured here: cell count max response, cells fed with added oleic acid
# Method in brief: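 Drosophila S3 cells loaded with oleic acid (400 uM, as added) and compounds at several concentrations; lipid droplets imaged by 488-nm laser-scanning cytometry, 500–530 nm intensity and object ratio to cell channel. Percent activity normalized to 20 uM Triacsin C.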
# [1] = measured here: lipid fluorescence (Fed channel) AC50, cells fed with added oleic acid
# [2] = measured here: cell number channel AC50, cells fed with added oleic acid
Compound,cell number change [%],AC50 [1],AC50 [2]
CCC1SC2=NCCN2C1(O)c1ccc(Cl)cc1 (stereo unspecified),7.6,"0.231 µM [falling, full curve]",
O=C1c2ccccc2C(=O)N1CC1c2ccccc2CCN1S(=O)(=O)c1ccccc1 (stereo unspecified),-24.4,,
O=C(CSc1ccc2nnc(CCNC(=O)c3ccccc3)n2n1)Nc1ccc(F)cc1F,,"1.84 µM [falling, partial curve, poor fit]",
CCOC(=O)C1=C(COC(=O)COc2ccccc2OCC)NC(=O)NC1C (stereo unspecified),-77,,
COc1cc2c(cc1OC)CN(C1CCCN(Cc3cc(Cl)ccc3O)C1)CC2 (stereo unspecified),-6.04,,"3.66 µM [falling, single point]"
CC1CC(C)CN(C(=O)c2ccc(S(=O)(=O)N3CCCCC3)cc2)C1 (stereo unspecified),-2.89,"8.2 µM [falling, partial curve, poor fit]",
COc1ccc(NC(=O)c2oc3ccccc3c2C)c(OC)c1,,"1.46 µM [rising, full curve]","1.3 µM [rising, full curve]"
CCOC(=O)c1c(N/N=C/c2ccncc2)n[nH]c1C,35.4,"2.31 µM [rising, partial curve, poor fit]","2.06 µM [rising, partial curve]"
O=C(CC1SC(=Nc2ccccc2)N(CCc2ccccn2)C1=O)Nc1ccc(F)cc1 (stereo unspecified),13.5,"29.1 µM [rising, single point]",
O=C(c1cc(Br)c(Br)s1)N1CCOCC1,-3.97,"0.58 µM [falling, single point]",
O=C(O)c1ccc2c(c1)C(=O)N(c1cccc3ccccc13)C2=O,40.5,,"32.6 µM [rising, single point]"
O=[N+]([O-])c1cc(S(=O)(=O)N2CCCC2)ccc1N/N=C/c1ccccn1,2.01,"29.1 µM [rising, single point]",
CC(C)c1ccccc1NC(=S)NCCCn1ccnc1,,"0.58 µM [rising, single point]",
COc1ccc(NC(=O)c2oc3ccccc3c2NC(=O)C2CC2)cc1,16.5,"3.26 µM [falling, partial curve]",
C/C(=N\Nc1ccccc1)c1c(O)cc(C)oc1=O,50.1,,"1.84 µM [rising, partial curve]"
COc1ccc(CSc2ncnc3sccc23)cc1F,2.23,,
C=C1[C@@H](OC(C)=O)CC[C@]2(C)[C@@H]1C[C@@H]1C[C@H](OC(C)=O)C(C)=C([C@@H](OC(C)=O)[C@@H]2OC(C)=O)C1(C)C,15,"4.11 µM [rising, full curve, poor fit]",
O=S(=O)(Nc1ccc(C(F)(F)F)cc1)c1cnc[nH]1,-5.81,,
ClCc1nc2ccccc2c2ccccc12,21.7,,
COc1cccc(-c2cc(C(=O)N3CCN(S(=O)(=O)c4ccccc4)CC3)[nH]n2)c1,-8.36,"3.66 µM [falling, single point]",
Cc1cc(C)n2nc(C(=O)OCC(=O)Nc3cc(Cl)ccc3C)nc2n1,1.93,"16.4 µM [rising, partial curve, poor fit]",

# Ordered by molecular weight (rising): part of the list above
Compound,cell number change [%],AC50 [1],AC50 [2]
COc1ccc(CSc2ncnc3sccc23)cc1F,2.23,,
COc1ccc(NC(=O)c2oc3ccccc3c2NC(=O)C2CC2)cc1,16.5,"3.26 µM [falling, partial curve]",
CC1CC(C)CN(C(=O)c2ccc(S(=O)(=O)N3CCCCC3)cc2)C1 (stereo unspecified),-2.89,"8.2 µM [falling, partial curve, poor fit]",
CCOC(=O)C1=C(COC(=O)COc2ccccc2OCC)NC(=O)NC1C (stereo unspecified),-77,,
COc1cccc(-c2cc(C(=O)N3CCN(S(=O)(=O)c4ccccc4)CC3)[nH]n2)c1,-8.36,"3.66 µM [falling, single point]",

# Additional records

Compound,cell number change [%],AC50 [1],AC50 [2]
COc1ccc(Cl)cc1NC(=O)COC(=O)/C=C/c1c(C)nn(C2CCS(=O)(=O)C2)c1Cl (stereo unspecified),-27.3,,
CC(=O)c1ccc(N(C)C)c2c(N(C)C)cccc12,4.59,,
CCc1ccccc1NC(=O)c1sc2nc(C)cc(C)c2c1N,1.35,"29.1 µM [falling, single point]",
NS(=O)(=O)c1ccc(CCNC(=O)CN2CCCCC2)cc1,-5.65,,
Brc1ccc(-c2nn3c(-c4ccccn4)nnc3s2)o1,,"0.58 µM [rising, single point]",
C=CCNC(=S)N1CCC(C(=O)c2ccc(Cl)cc2)CC1,-16.9,,
O=C(CCc1nnc(C2CCCCC2)o1)N1CCN(Cc2ccccc2)CC1,11.5,,"3.66 µM [falling, single point]"
Cc1ccccc1OCCNC(=O)/C=C/c1ccc([N+](=O)[O-])cc1,13.8,"29.1 µM [rising, single point]",
Cc1n[nH]c(C)c1CN(C)C(=O)C1CCC(=O)N(CC2CCCCC2)C1 (stereo unspecified),12.4,"29.1 µM [rising, partial curve, poor fit]",
CC1CCCCC1NC(=O)C1CCN(C(=O)c2sccc2-n2cccc2)CC1 (stereo unspecified),23.3,"23.1 µM [rising, single point]",
COc1cc(/C=C/c2ccc3cccc(OC)c3n2)c(OC(C)=O)c([N+](=O)[O-])c1,-79.7,"3.66 µM [falling, full curve, poor fit]","20.6 µM [falling, single point]"
O=C(CNC(=O)C1COc2ccccc2O1)Nc1cc(Cl)ccc1Cl (stereo unspecified),-25,,
CCN(CC)S(=O)(=O)c1cccc(-c2nnc(SCC(=O)NC3CCCCCCC3)n2N)c1,11.3,"11.6 µM [rising, partial curve]",
CC(C)c1[nH]nc2c1C(c1ccc(OC(=O)c3ccco3)cc1)C(C#N)=C(N)O2 (stereo unspecified),-6.58,"6.51 µM [rising, single point]",
CCOc1ccc(CN(C)C(=O)Cc2c[nH]c3ccccc23)cc1,18.4,"5.8 µM [rising, partial curve, poor fit]",
Cc1cccc(NC(=O)COc2cccc3c2CCN(C)C3=O)c1C,34.5,"18.4 µM [rising, single point]","20.6 µM [rising, single point]"
CC1=CC2=NC(=O)/C(=C\c3cccn3CCOc3ccccc3)C(=N)N2O1,-7.04,"3.66 µM [rising, single point]",
CC1c2cc3c(cc2CCN1C(=O)c1ccc(Br)cc1)OCCCO3 (stereo unspecified),-12,"0.58 µM [rising, single point]",
COc1ccc(Cl)cc1C(=O)CSc1nnnn1C1CCCCC1,,"4.61 µM [falling, single point]",
Cc1ccccc1OCC(=O)NCC(c1cccs1)N1CCOCC1 (stereo unspecified),53.5,,"1.84 µM [rising, partial curve]"
CCOc1ccccc1NC(=S)NC(=O)CCCOc1ccc(Cl)cc1Cl,14.9,"0.651 µM [rising, full curve, poor fit]",

Compound,cell number change [%],AC50 [1],AC50 [2]
O=C(O)CN1C(=O)SC(Nc2ccccc2C(=O)O)C1=O (stereo unspecified),-21.8,"0.366 µM [falling, full curve]","0.0651 µM [falling, full curve, poor fit]"
CCc1ccc(NC(=O)CSc2nnc(CC)c(CC)n2)cc1,93.2,,"0.731 µM [rising, single point]"
CC(C)c1ccc(S(=O)(=O)N2CCN(C(=O)CN3C(=O)NC4(CCCCC4)C3=O)CC2)cc1,-13.5,,
O=C(NC1CCCC1)C(c1ccccc1)N(C(=O)c1csnn1)c1ccccc1F (stereo unspecified),-17.1,,
CCS(=O)(=O)NCc1ccc2[nH]c3c(c2c1)CCCC3,73.4,"18.4 µM [rising, partial curve]","14.6 µM [rising, partial curve]"
C=C(C)c1cccc(C(C)(C)NC(=O)NCc2ccc(OC)cc2)c1,2.73,"6.51 µM [falling, partial curve, poor fit]",
COc1ccccc1CNC(=O)COc1ccc([N+](=O)[O-])cc1,38.2,"0.82 µM [rising, partial curve]",
COc1ccc(-n2c(SCC(=O)N3CCOCC3)nc(O)c(Cc3ccccc3)c2=O)cc1,11.2,"29.1 µM [falling, single point]","1.84 µM [falling, partial curve]"
O=C(O)c1ccc(O)cc1O,0.113,"1.16 µM [rising, single point]",
C=CCn1c(SCc2csc(C)n2)nc2sc3c(c2c1=O)CCCC3,,,"0.731 µM [rising, single point]"
CN(C)/C=C1\N=C(c2cccs2)OC1=O,2.71,"18.4 µM [rising, partial curve]",
COc1ccc2c(c1)c1ncn(CCc3ccccc3)c(=O)c1n2C,21.4,"0.116 µM [rising, full curve, poor fit]","0.103 µM [rising, full curve]"
CCCCn1c(SCc2nc3ccccc3s2)nc2ccccc2c1=O,1.45,"1.84 µM [rising, partial curve]",
CCc1cccc2c1NC(=O)C2(O)CC(=O)c1cccs1 (stereo unspecified),22.6,"7.31 µM [rising, partial curve]","3.66 µM [rising, single point]"
CCN(Cc1nc(-c2ccccc2)no1)C(=O)c1ccoc1C,-10.5,"2.82 µM [rising, partial curve]",
COc1ccccc1C(=O)Nc1ccc(C(=O)N2CCCC2)cc1,4.49,"3.66 µM [rising, partial curve]","0.731 µM [rising, partial curve, poor fit]"
Cc1nc(C)n(C(C)CNS(=O)(=O)c2ccc(C)c(C)c2)n1 (stereo unspecified),9.66,"6.51 µM [rising, single point]",
O=C(Cc1cccs1)N1CCN(S(=O)(=O)c2cccc([N+](=O)[O-])c2)CC1,39.7,"29.1 µM [rising, single point]","32.6 µM [rising, single point]"
Cn1c2ccccc2c2cc(/C=N/NC(=O)c3cc(O)cc(O)c3)ccc21,-27.9,"28.2 µM [falling, single point]",
COc1ccc(S(=O)(=O)N2CCCCCC2)cc1C(=O)N(C)CC(=O)Nc1c(Cl)cccc1Cl,24.9,,

# Source: PubChem BioAssay AID2685 (National Center for Advancing Translational Sciences (NCATS), 2010)
